No constants are given. Whether binding was seen depends on the method and setting. Some entries that bind do so weakly or less than the wild type.
Biological target: T1, pro-EMAPII protein (recombinant pro-EMAP II, Examples 1 and 10) (Mus musculus (Mouse)) (UniProt P31230)
T1 sequence: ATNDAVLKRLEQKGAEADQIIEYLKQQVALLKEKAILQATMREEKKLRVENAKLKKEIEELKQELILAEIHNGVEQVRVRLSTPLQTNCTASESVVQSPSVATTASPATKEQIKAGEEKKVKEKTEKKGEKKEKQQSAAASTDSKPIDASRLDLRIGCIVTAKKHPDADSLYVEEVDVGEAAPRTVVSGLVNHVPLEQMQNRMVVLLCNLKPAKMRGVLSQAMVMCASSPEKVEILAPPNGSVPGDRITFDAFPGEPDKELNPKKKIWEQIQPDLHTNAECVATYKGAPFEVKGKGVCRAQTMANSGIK
Assay: ELISA of hybridoma supernatants

B1: rat antibody hybridoma clone M7/1 (EMAP II neutralizing M7/1 antibody) (antibody, V domains shown)
VH: AVHLVESGGGFVQPTESLKISCAASGFTFSDAAMYWVRQAPGKGLEWVARIRTKPNNYATYYADSVKGRFTISRDDSKSMVYLQMDNLKTEDTAMYYCTSWSYDFDYWGQGVMVTVSS
VL: DIVMTQGALPNPVPSGESASITCQSSKSLLHSSGKTYLNWYLQRPGQSPHLLIYWMSTRASGVSDRLSGSGSGTDFTLKISSVEAEDVGVYYCQQFLEYPLTFGSGTKLEIK
Q: How did the binding turn out when B1 was run?
A: binds
